Assay results: PubChem BioAssay AID2685 (National Center for Advancing Translational Sciences (NCATS), 2010)
Some of the results follow. Further columns of the screen follow, without active or inactive calls. The list favours compounds with an active or inconclusive main result. Words in brackets tell the shape of the fitted curve; partial curves, single points and poor fits give uncertain potencies.

Experiment: qHTS Assay for Lipid Storage Modulators in Drosophila S3 Cells;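 for cell number change: cells counted by Cell Tracker Red CMTPX staining in the red channel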
Conditions: BODIPY lipid droplet fluorescence, 18-24 h; for cell number change: measured here: cell count max response, cells fed with added oleic acid
How it was run: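 Drosophila S3 cells got compounds at several concentrations plus oleic acid (400 uM solution). Laser-scanning cytometry with 488 nm excitation read lipid droplets at 500-530 nm and cells at 575-640 nm. Percent activity was relative to 20 uM Triacsin C.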

[1] = measured here: lipid fluorescence (Fed channel) AC50, cells fed with added oleic acid
[2] = measured here: cell number channel AC50, cells fed with added oleic acid

| SMILES | cell number change | AC50 [1] | AC50 [2] |
| --- | --- | --- | --- |
| CSc1ncc(C(=O)Nc2ccccc2)cn1 | -2.11% | 32.6 µM [rising, single point] | – |
| CC(C)(C)NC(=O)c1cnn(-c2ccccc2)c1NC(=O)c1ccccc1 | 15.2% | 0.116 µM [falling, full curve, poor fit] | – |
| CC1(C)C(=O)OC(c2cccc([N+](=O)[O-])c2)C2(CCCCC2)C1=O (centres undefined) | -10.1% | 29.1 µM [rising, single point] | – |
| O=C1Nc2ccc(Br)cc2/C1=C/C1CC=CCC1 (centres undefined) | -64.5% | 20.6 µM [falling, single point] | 18.4 µM [falling, single point] |
| CC(C)(C)OC(=O)N1CCC(CC2CC(c3ccccc3)=NO2)(C(=O)NCc2ccccc2)CC1 (centres undefined) | -24% | 0.231 µM [rising, full curve] | – |
| CSCc1c(C(=O)NC2CCCc3ccccc32)oc2ccccc12 (centres undefined) | 4.51% | 20.6 µM [falling, single point] | – |
| COc1cc(OC)c(NC(=O)Nc2ccc(OC)c(OC)c2)cc1Cl | -18.8% | 23.1 µM [rising, single point] | – |
| CN(Cc1nc(-c2ccc(Cl)cc2)no1)C(=O)CCN1C(=O)[C@H]2CC=CC[C@H]2C1=O | 2.09% | – | – |
| CC1CCCN(C(=O)CN2C(=O)C(C)Oc3ccccc32)C1 (centres undefined) | 20.1% | – | – |
| COc1ccc(OC)c(/C=c2\sc3nc(-c4cccs4)nn3c2=O)c1 | -6.16% | 0.82 µM [falling, full curve] | 6.51 µM [falling, single point] |
| Nc1nc(SCc2c(Cl)cccc2Cl)n[nH]1 | – | – | 0.00461 µM [rising, full curve, poor fit] |
| CCOC(=O)C1C(=O)OC(C)(C)C1C(CC)C(=O)c1c(C)cc(C)cc1C (centres undefined) | 17.3% | 29.1 µM [rising, single point] | – |
| COC(=O)c1ccc(NC(=O)c2ccc3nsnc3c2)cc1 | 6.58% | 6.31 µM [rising, single point] | – |
| CC(=O)N1CCc2cc(S(=O)(=O)NC3CCCc4ccccc43)ccc21 (centres undefined) | -25.2% | 8.2 µM [falling, partial curve] | – |
| CN(Cc1ccccc1)c1ccc(C(CC(N)=O)NC(=O)Cc2cccc3ccccc23)cc1[N+](=O)[O-] (centres undefined) | -13.8% | 2.59 µM [rising, partial curve, poor fit] | – |
| CN1C(=O)N(C)C2(c3ccccc3)Nn3c(s/c(=C/c4ccccc4)c3=O)=NC12c1ccccc1 (centres undefined) | -2.26% | 29.1 µM [falling, partial curve] | – |
| CC(NS(=O)(=O)c1ccc(Cl)cc1)C(=O)N1CCOCC1 (centres undefined) | -36.8% | – | 0.517 µM [falling, full curve, poor fit] |
| CC(C)(C)NC(=O)CSc1ncnc2c1cnn2-c1ccccc1 | -18.6% | 9.2 µM [falling, partial curve] | – |
| COc1cccc(NC(=O)CCS(=O)(=O)c2ccc(Br)cc2)c1 | – | 6.51 µM [rising, single point] | 6.51 µM [rising, single point] |
| O=C(NCc1cccc(Cl)c1)c1ccc2nc(N3CCOCC3)sc2c1 | -5.69% | – | – |

Quoted from the listing, four compounds:

| SMILES | cell number change | AC50 [1] | AC50 [2] |
| --- | --- | --- | --- |
| CC1(C)C(=O)OC(c2cccc([N+](=O)[O-])c2)C2(CCCCC2)C1=O (centres undefined) | -10.1% | 29.1 µM [rising, single point] | – |
| O=C1Nc2ccc(Br)cc2/C1=C/C1CC=CCC1 (centres undefined) | -64.5% | 20.6 µM [falling, single point] | 18.4 µM [falling, single point] |
| CC(C)(C)OC(=O)N1CCC(CC2CC(c3ccccc3)=NO2)(C(=O)NCc2ccccc2)CC1 (centres undefined) | -24% | 0.231 µM [rising, full curve] | – |
| CSCc1c(C(=O)NC2CCCc3ccccc32)oc2ccccc12 (centres undefined) | 4.51% | 20.6 µM [falling, single point] | – |

(list continues)

| SMILES | cell number change | AC50 [1] | AC50 [2] |
| --- | --- | --- | --- |
| O=C(O)Cn1nnn(-c2ccccc2)c1=S | -35.5% | 1.16 µM [falling, full curve] | 0.058 µM [falling, full curve] |
| COc1ccccc1C(=O)NC(=S)Nc1ccc(NC(=O)c2ccco2)cc1 | -56.7% | – | 20.6 µM [falling, single point] |
| O=C(Nc1cccnc1)C1(c2ccccc2)CCCC1 | -4.69% | – | – |
| O=C1c2cccnc2C(O)N1Cc1ccccc1 (centres undefined) | -63.1% | – | 20.6 µM [falling, partial curve, poor fit] |
| COc1cccc(C(c2c(O)nc(SC)n(C)c2=O)c2c(O)nc(SC)n(C)c2=O)c1 | -6.36% | 4.61 µM [rising, partial curve] | – |
| Cc1nc(NC(=O)C2CCCC2)sc1Cc1ccc2c(c1)OCO2 | 1.1% | 0.58 µM [falling, single point] | – |
| O=C(CSc1nc2ccccc2[nH]1)NCCc1ccc(Cl)cc1 | -16.7% | – | – |
| CCSc1nc(N2CCOCC2)c2c(c1C#N)CCCC2 | -6.29% | 29.1 µM [rising, single point] | – |
| O=C(c1ccco1)N1CCN(C(=O)c2cc(Cl)nc3ccccc23)CC1 | 50% | 29.1 µM [rising, single point] | 29.1 µM [rising, single point] |
| CN1C(=O)/C(=C/c2cc3c(cc2Br)OCO3)NC1=S | – | 0.517 µM [rising, full curve] | 0.731 µM [rising, full curve] |
| CCCCn1c(CNC(=O)Cc2ccccc2)nc2ccccc21 | 46.4% | 20.6 µM [rising, partial curve] | 20.6 µM [rising, single point] |
| COc1ccc(C2C(C(=O)O)c3ccccc3C(=O)N2Cc2ccco2)cc1 (centres undefined) | -44.9% | 25.9 µM [falling, single point] | 10.3 µM [falling, partial curve] |
| O=C1CCCc2c1nc(-c1ccccc1F)n2O | -33.1% | – | 32.6 µM [falling, single point] |
| CC(C)(C)c1ccc(/C=C2\Oc3cc(O)ccc3C2=O)cc1 | -36.9% | 5.17 µM [falling, full curve, poor fit] | 0.651 µM [falling, partial curve] |
| CC(C)C(NC(=O)CN1C(=O)c2cccc3cccc1c23)C(C)C | -23.5% | 6.51 µM [falling, partial curve] | – |
| Cn1c(=O)c2c(nc(NCCc3ccccc3)n2CC(=O)NCCc2ccccc2)n(C)c1=O | – | 1.64 µM [rising, full curve] | 1.64 µM [rising, partial curve] |
| CCOC(=O)CNC(=O)C1(/C=C/c2ccccc2)CC(=O)N1c1ccc(OC)cc1 (centres undefined) | -11.7% | 0.731 µM [falling, partial curve, poor fit] | – |
| Cc1ccc(S(=O)(=O)NCCN2CCOCC2)cc1C | -4.45% | 0.461 µM [falling, single point] | – |
| CC(C)c1ccccc1NC(=O)COC(=O)COc1ccccc1[N+](=O)[O-] | – | 29.1 µM [rising, single point] | – |
| CN(CCc1cn[nH]c1)Cc1nc(C(c2ccccc2)c2ccccc2)no1 | -18.7% | 14.6 µM [falling, partial curve] | – |

| SMILES | cell number change | AC50 [1] | AC50 [2] |
| --- | --- | --- | --- |
| Cc1cc(C)n(/N=C/c2ccc(C(C)C)cc2)c(=O)c1C#N | 30.2% | 14.6 µM [rising, partial curve, poor fit] | 13 µM [rising, partial curve, poor fit] |
| Cc1c(NC(=O)C(c2ccccc2)c2ccccc2)cccc1C(=O)O | 5.73% | – | – |
| Cc1cccc(NC(=O)N[C@@H](C)C(=O)O)c1 | 3.25% | – | – |
| COc1ccccc1N1C(=O)CCC1(C#N)c1ccccc1 (centres undefined) | -10% | – | – |
| O=C(CNC(=O)c1ccccc1Cl)OCC(=O)N1CCc2ccccc21 | 2.94% | 6.51 µM [rising, single point] | 0.82 µM [falling, single point] |
| Cc1c(NC(=O)C(C)OC(=O)CCC2CCCC2)c(=O)n(-c2ccccc2)n1C (centres undefined) | 2.62% | 18.4 µM [falling, single point] | – |
| Oc1cccc(/C=N\Nc2nncc(-c3ccccc3)n2)c1 | -17.3% | 2.06 µM [falling, single point] | – |
| Cc1ccc2cc(CN(C(=O)c3ccco3)c3ccccc3C)c(=O)[nH]c2c1 | -15% | 1.3 µM [rising, full curve, poor fit] | – |
| CCCc1nc2ccccc2n1CCOC | 11.2% | 16.4 µM [falling, partial curve] | – |
| CSc1cccc(NC(=O)c2cc(S(=O)(=O)N3CCCCC3)c[nH]2)c1 | 28.1% | 18.4 µM [falling, single point] | – |
| Cc1ccc(S(=O)(=O)/N=C(\CN2CCOCC2)N2CCCC2)cc1 | 12.2% | 0.651 µM [falling, single point] | – |
| Cc1ccc(C(=O)Nc2nc3ccc(S(C)(=O)=O)cc3s2)cc1C | -60.3% | 11.6 µM [falling, partial curve] | 9.2 µM [falling, partial curve] |
| C(=N\Nc1nc2ccccc2[nH]1)/c1ccc2ncccc2c1 | -9.65% | 2.31 µM [rising, partial curve] | – |
| CCCN1C(=O)/C(=C\c2nc3ccccc3c(=O)[nH]2)c2ccccc21 | -16.2% | 32.6 µM [falling, single point] | – |
| CCN(CC)CCNC(=O)c1sc2nc(-c3ccccc3)cn2c1C | -8.07% | 18.4 µM [falling, single point] | – |
| CCn1c(SCC(=O)Nc2ccc3c(c2)c2ccccc2n3CC)nnc1-c1ccco1 | – | 0.116 µM [rising, full curve] | 0.116 µM [rising, partial curve, poor fit] |
| CCOc1cc(/C=N/Nc2cccc(C(=O)O)c2)ccc1OCC(=O)N1CCCCC1 | 31.8% | 2.91 µM [rising, partial curve] | 0.411 µM [rising, full curve] |
| CCCCn1c(N)c(N(CC)C(=O)C2CCN(C(=O)c3ccccc3C)CC2)c(=O)[nH]c1=O | 16.6% | 0.0326 µM [rising, full curve, poor fit] | – |
| CC(C)(C)c1cc(S(=O)(=O)CCc2ccccn2)cc(C(C)(C)C)c1F | 12% | 6.51 µM [rising, single point] | – |
